The values below come from the supplement of paper PMC12889115.

This experiment concerns Salmonella enterica serovar Typhimurium SL1344. Kind of experiment: bacterial growth OD600 after 18 h with compound and polymyxin B; higher = more bacterial growth (less inhibition). The conditions noted are these: 50 µM, Mueller-Hinton broth.

Structures are written as SMILES. The list shows a part of the results. Values are raw readings; no control value is given beside them.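 Primary screen: polymyxin B was added at a level permeabilizing Salmonella outer membranes while sparing inner membranes. DMSO wells, both with and without polymyxin B, established maximum growth. Plate-to-plate variation meant each plate was ranked on its own, and the lowest-OD600 compounds were selected as hits.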

In the case of `COc1cccc(CN2CCN(C(=O)CCC3(Cc4ccccc4)CCC(=O)N3)CC2=O)c1` (centres undefined), the “bacterial growth OD600” value (polymyxin B 0.75 µg/mL) turned out to be 0.781. `Cc1n[nH]c(C)c1CCN(C)C(=O)C1CCC(=O)N(CCCN2CCOCC2)C1` (centres undefined): the “bacterial growth OD600” value (polymyxin B 1 µg/mL) stood at 1.01.

Regarding `O=C(NC1CC(=O)N(Cc2cccc(F)c2)C1)C1CCCCC1` (centres undefined), the “bacterial growth OD600” value (polymyxin B 1 µg/mL) amounted to 0.916. In the case of `CCN1CCCC1CNC(=O)CCC1CCN(C(=O)c2ccnc(Cl)c2)CC1` (centres undefined), where the note is “polymyxin B 0.75 µg/mL”, the “bacterial growth OD600” value worked out at 0.878.

In the case of `COc1cc(C(=O)NCCc2ncccc2C)ccc1OC1CCN(C(C)=O)CC1`, for the setting “polymyxin B 1 µg/mL”, the “bacterial growth OD600” value worked out at 0.946.

As for `O=C(CC1CCCC1)Nc1cccc(N2CCC(NCC(c3ccccn3)N3CCOCC3)CC2)c1` (centres undefined), under “polymyxin B 0.75 µg/mL”, the “bacterial growth OD600” value turned out to be 0.849. Turning to `COc1cccc(CN2CCCC(c3[nH]ncc3CC(C)C)C2)c1O` (centres undefined), for the setting “polymyxin B 0.75 µg/mL”, the “bacterial growth OD600” value amounted to 0.888. Regarding `CC(C)n1cc(C(=O)NCc2cccnc2N(C)C2CCCCC2)cn1`, the “bacterial growth OD600” value (polymyxin B 0.75 µg/mL) was determined as 0.527. Still for that read-out and setting: to `Cc1cccc(C)c1Oc1ncccc1CNS(=O)(=O)c1cccnc1` belongs 0.786. Take `COc1ccc(CN2CCC(CO)(Cc3ccc(Cl)cc3)CC2)cc1C`: the “bacterial growth OD600” value (polymyxin B 0.75 µg/mL) was 0.045. As to `CN(CCc1ccccc1)C1(C(=O)N2CCNC(=O)CC2)Cc2ccccc2C1`, the “bacterial growth OD600” value (polymyxin B 0.75 µg/mL) was determined as 0.656. The same measure, in the same setting: to `Cn1c(C2CCCO2)nc2cc(NC(=O)CC3CCCC3)cc(C(=O)NCCc3ccco3)c21` (centres undefined) belongs 0.837. On to `COc1cc(C(=O)NCc2nc(C)cs2)ccc1OC1CCN(C(C)=O)CC1`, for which the “bacterial growth OD600” value (polymyxin B 1 µg/mL) is 0.886. Take `CCOC(=O)N1CCN(Cc2nc(NCc3cccs3)c3ccccc3n2)CC1`: the “bacterial growth OD600” value (polymyxin B 0.75 µg/mL) is 0.776.

Take `CCOc1ccc(CN2CCN(Cc3ccc4nsnc4c3)CC2CCO)cc1` (centres undefined): where the note is “polymyxin B 1 µg/mL”, the “bacterial growth OD600” value came out at 0.846. In the case of `O=C1NCCN1CCNC(=O)C1(N2CCCCC2)Cc2ccccc2C1`, for the setting “polymyxin B 0.75 µg/mL”, the “bacterial growth OD600” value came out at 0.843.

Take `CCS(=O)(=O)c1ncc(CN(C)CC2CCCCO2)n1CCc1ccccc1` (centres undefined): where the note is “polymyxin B 0.75 µg/mL”, the “bacterial growth OD600” value was found to be 0.771. The same measure, in the same setting: to `COCCN1C(=O)CC(CC(=O)N(C)C(C)c2ccc(OC)cc2)(c2ccccc2OC)C1=O` (centres undefined) belongs 0.939. For `CSc1ccccc1OCc1cc(C(=O)NC(C)Cn2cncn2)no1` (centres undefined), where the note is “polymyxin B 1 µg/mL”, the “bacterial growth OD600” value stood at 0.864.
